The values below come from article PMC6902473 (Clinical Epigenetics, 2019).

Several values for one entry are separate records, joined by “and”; a condition that tells them apart may be missing. Equal entries are not always repeated.

The nature of this data set: clinical. To be noted: human, in vivo. An excerpt: The assays were validated according to the common FDA and EMA guidelines on bioanalytical method validation.

The term Vd denotes the apparent volume that relates the amount in the body to the concentration in plasma or blood. As a reminder, the Cmax is the highest concentration seen after dosing. What is called Vz is a proportionality between amount in the body and measured concentration, not a real space. As for `O=C(CCCCCCC(=O)Nc1ccccc1)NO` [vorinostat], the Vd by setting is: (214 mg/m2, Vz) 646 L; (280 mg/m2, Vz) 466 L. Moreover, the Cmax (250 mg/m2, Cmax) was 2.67 µM and 704 ng/mL. Further, the Vz (280 mg/m2) is listed as 529 L. For the same compound, the “Vz, Minimum” value (po, 580 mg/m2) was determined as 377 L.
